Results deposited as PubChem BioAssay AID504791 (Drosophila RNAi Screening Center, 2011).

Purpose: 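Genes whose knock-down strengthens or weakens small-RNA reporter silencing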 (primary screen)
Cell system: Drosophila S2-derived reporter cells
Reagent: long dsRNA against Drosophila genes, about 150-250 ng dsRNA per well (siRNA assay); about 80-120 ng (miRNA assay)
Duration: about 5 days (siRNA assay); about 4 days (miRNA assay)
Conditions: copper sulfate induction of reporters: 25 µM (siRNA assay); 200 mM stated (miRNA assay), 1-2 days before reading
Measurement: 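Per-well ratio of Renilla over firefly light, expressed relative to that plate's average ratio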
Direction: siRNA reporter hit score: higher = 3 marks a strong hit with raised ratio; -3 a strong hit with lowered ratio
Active means: 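First-pass picks had plate-scaled ratios over 1.5 for the siRNA assay, over 1.6 for the miRNA assay, or under 0.6; two distinct dsRNAs had to score alike on retest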
In all, the deposit lists about 23,000 reagents; below is a random part of those that have a named target and a result. In the full data, 199 (0.86%) were called active. 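Plate-scaled ratios behind the calls are not deposited; printed light signals are raw; many rows marked increased or decreased are still called inactive.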 Names joined by + are all predicted targets of the reagent. No sequences are given here.

Target gene | DRSC id | siRNA reporter hit score | stable siRNA reporter change | miRNA reporter change | stable assay Renilla, run 1 (luminescence) | stable assay firefly, run 1 (luminescence) | Outcome
ovo | DRSC18050 | – | – | – | 8354 | 5.90e5 | inactive
ovo | DRSC18812 | – | – | – | 6347 | 3.47e5 | inactive
CG7509 | DRSC08596 | – | – | – | 7175 | 3.68e5 | inactive
CG14491 | DRSC06462 | – | – | – | 4587 | 3.65e5 | inactive
RpL18A | DRSC07538 | – | – | – | 6738 | 2.72e5 | inactive
Dysb | DRSC10730 | – | – | – | 8203 | 4.09e5 | inactive
z | DRSC18855 | 3 | – | – | 7526 | 2.78e5 | inactive
z | DRSC23134 | – | – | – | 5407 | 3.72e5 | inactive
HP1D3csd | DRSC19548 | – | – | – | 5998 | 3.72e5 | inactive
tgo | DRSC17077 | – | – | – | 8099 | 3.36e5 | inactive
CG3165 | DRSC00573 | – | – | – | 57942 | 81252 | inactive
otp | DRSC04050 | – | – | – | 7370 | 3.49e5 | inactive
otp | DRSC04707 | – | – | – | 6526 | 3.26e5 | inactive
CG13949 | DRSC00367 | – | – | – | 3279 | 3.26e5 | inactive
CycH | DRSC11861 | – | – | – | 7060 | 4.41e5 | inactive
CycH | DRSC21308 | – | – | – | 3607 | 4.28e5 | inactive
CG15891 + CG15892 | DRSC18095 | – | – | – | 5017 | 4.64e5 | inactive
CG15891 + CG15892 | DRSC18096 | – | – | – | 5076 | 3.56e5 | inactive
CG8301 | DRSC16405 | – | – | – | 7146 | 4.36e5 | inactive
CR34254 | DRSC09562 | – | – | – | 5395 | 3.92e5 | inactive
CG32109 | DRSC09816 | – | – | – | 6552 | 4.13e5 | inactive
Itpr | DRSC12354 | – | – | – | 7060 | 4.28e5 | inactive
BubR1 | DRSC04838 | – | – | – | 6454 | 3.52e5 | inactive
VGlut | DRSC00733 | – | – | – | 3932 | 3.54e5 | inactive
VGlut | DRSC21821 | – | – | – | 8884 | 4.60e5 | inactive
CG17834 | DRSC02637 | – | – | – | 7251 | 6.70e5 | inactive
CG7071 + Muted | DRSC16189 | – | – | – | 6759 | 3.06e5 | inactive
EndoA | DRSC14775 | – | – | – | 10259 | 4.57e5 | inactive
Prp3 | DRSC10912 | – | – | – | 8579 | 3.50e5 | inactive
Cirl | DRSC21942 | – | – | – | 8359 | 3.44e5 | inactive
Cirl | DRSC23235 | – | – | – | 3679 | 2.54e5 | inactive
CG32182 | DRSC09508 | – | – | – | 5635 | 4.37e5 | inactive
Cpr73D | DRSC11084 | – | – | – | 8107 | 3.20e5 | inactive
prd | DRSC03597 | – | – | – | 15072 | 9.98e5 | inactive
CG13760 | DRSC18617 | – | – | – | 6660 | 3.99e5 | inactive
dpr11 | DRSC12561 | – | – | – | 6464 | 3.25e5 | inactive
dpr11 | DRSC12562 | – | – | – | 6652 | 3.96e5 | inactive
dpr11 | DRSC12563 | – | – | – | 6175 | 4.31e5 | inactive
CG7512 | DRSC10863 | – | – | – | 7911 | 4.75e5 | inactive
chn | DRSC06086 | – | – | – | 6867 | 5.07e5 | inactive
CG5235 | DRSC10494 | – | – | – | 7847 | 3.30e5 | inactive
l(3)73Ah | DRSC11359 | – | – | – | 9071 | 3.62e5 | inactive
ranshi | DRSC16564 | – | – | – | 7099 | 4.13e5 | inactive
Vha68-1 | DRSC03470 | – | – | – | 6963 | 4.38e5 | inactive
CG31687 + Cdc23 | DRSC23052 | – | – | – | 7155 | 4.20e5 | inactive
COX5A | DRSC16611 | – | – | – | 5920 | 4.58e5 | inactive
eIF2gamma | DRSC13081 | – | reporter ratio lowered past the hit cutoff | reporter ratio raised past the hit cutoff | 3400 | 5.63e5 | inactive
eIF2gamma | DRSC16873 | – | reporter ratio lowered past the hit cutoff | – | 8731 | 1.40e6 | active
CG13692 | DRSC00361 | – | – | – | 7726 | 4.38e5 | inactive
rump | DRSC16480 | – | – | – | 7898 | 3.74e5 | inactive
CG34396 | DRSC04245 | – | – | – | 7358 | 6.34e5 | inactive
CG34396 | DRSC04246 | – | – | – | 7826 | 5.12e5 | inactive
dmrt99B | DRSC15045 | – | – | – | 5303 | 2.20e5 | inactive
dmrt99B | DRSC22977 | – | – | – | 4272 | 3.60e5 | inactive
CG13066 | DRSC09949 | – | – | – | 7320 | 3.54e5 | inactive
wds | DRSC18852 | – | reporter ratio raised past the hit cutoff | – | 13692 | 4.62e5 | active
ara | DRSC11322 | – | – | – | 4959 | 2.97e5 | inactive
ara | DRSC22984 | – | – | – | 5047 | 3.93e5 | inactive
